Data published in US20250109127A1, “METHODS OF USE OF PHENOXYPROPYLAMINE COMPOUNDS TO TREAT DEPRESSION” (Minerva Neurosciences, Inc., priority 2013, published 2025).
“And” between values parts separate entries of the source, which are not always exact repeats. Equal values may be shown once. Where a name gives a salt, the structure may show the parent alone. This continues a long series; more values of the same kind are listed elsewhere.

Experiments:
[1] = test system: DOPAC release in the rat prefrontal cortex; test: Microdialysis: DOPAC release in prefrontal cortex after I.P. administration; assay type: in vivo; conditions: hydrochloride; for DOPAC (% of respective basal), individual animal: 0.3 mg/kg I.P., c2-c9 = R#11,12,18,23,29,30,17,24; for DOPAC release, individual animals: 3 mg/kg IP, per animal R#15,16,21,22,27,28,09,10
Description: (§1) The aim of the study was to evaluate, using microdialysis, the effects of an intraperitoneal (I.P.) administration in rats of three different doses of SON-117 on dopamine and its metabolites, serotonin and its metabolite (5-HIAA), and norepinephrine levels in prefrontal cortex.
(§2) Thirty-two adult male Wistar rats were used for the whole study (4 groups of eight animals planned for the study, Table 1).
(§3) Surgery was performed on rats weighing about 300 g at the beginning of the experiments. Rats were anaesthetized with Ketamine (50 mg/kg) & Xylazine (15 mg/kg) by intramuscular administration. The animals were placed in a stereotaxic apparatus in the flat-skull position at a constant setting of −3.3 mm between ear bars and the incisor bar. The animals were treated with a local anesthesic (xylocaine 1%, Astra Zeneca) and an analgesic (Temgesic, from Schering Plough, 0.05 mg/kg, s.c.). A rostrocaudal midline incision was made with a lancet to expose the dorsal skull surface. The “stereotaxic zero” was defined by the Bregma in accordance with Paxinos and Watson's atlas (1986). A hole was drilled in the skull with a drill and the meninges were pierced with a sterile needle to implant a CMA12 guide cannula which later received the dialysis probe.
(§4) Coordinates used for implanting guide cannula in prefrontal cortex from Bregma were anteroposterior 3.7 mm, mediolateral 0.8 mm, and dorsoventral −2 mm (top of the probe was at −5 mm). The guide cannula was fixed to the skull with two stainless steel screws (1.88 mm outside diameter) anchored. An application of dental cement was added. A plastic collar allowed each animal to be tethered to a Swivel assembly of the CMA 120 awake animal system. Following surgery, rats were kept in individual cages and allowed to recover for a minimum of 3-5 days before the experimentation. The rats were handled and put in plastic bowl for 10 min at least every day to habituate the animals to their new environment for the dialysis. An I.P. administration with saline was also performed every day.
(§5) Dialysis probes (CMA12/3 mm, membrane, 20 kD cut-off, Carnegie Medicine, Stockholm, Sweden), were carefully washed before inserting into the guide cannula. The wash was performed with the artificial cerebrospinal fluid (aCSF) medium (NaCl 147 mM, KCl 2.7 mM, CaCl2 1.2 mM, MgCl2 0.85 mM) at room temperature. The dialysis system was then equilibrated at 20° C. at a perfusion rate of 1 μl/min with a Carnegie pump (CMA100). All catheters (FEP tubing, internal volume of 1.2 μl/10 cm, and tubing adaptors) used for microdialysis were treated in the same conditions.
(§6) The probes duly prepared were inserted into the guide cannula and the CMA120 Swivel assembly secured to the animal using a plastic collar. Flow through the dialysis probe with aCSF was maintained at a rate of 1 μl/min during the whole experimentation. The first four fractions (corresponding to 2 hours) were discarded to avoid the effects of parenchymal disturbance and to ensure that an approximate steady-state level was reached. Fractions were then collected over a period of 8.5 h during which time the animals remained quiet. The dialysates were automatically collected with an autosampler (microfraction collector CMA 140, Carnegie Medicin) and stored at −80° C. until analysis. […] Perfusion was then maintained for 7 hours with aCSF. The dialysates (30 μl) were collected into 300 μl vials, transferred into dry ice and then kept frozen (−80° C.) until analysis. Frozen samples were shipped to a partner for analysis. At the end of the microdialysis study, a PBS with colored ink was perfused through the probe in order to visualize the dialyzed area.
(§7) Catecholamine assay: Concentrations of dopamine, DOPAC, HVA, 5-HIAA, 5-HT, and norepinephrin were determined for each sample by HPLC coupled with electrochemical detection.

[2] = test system: dopamine release in the rat prefrontal cortex; test: Microdialysis: dopamine release in prefrontal cortex after I.P. administration; assay type: in vivo; conditions: hydrochloride; for DOPAMINE (% of respective basal), individual animal: 0.1 mg/kg I.P., c2-c9 = R#13,14,20,19,25,26,31,32; for Dopamine release, individual animals: 0.3 mg/kg I.P., one column per animal R#11,12,18,23,29,30,17,24
Description: as §1, §2, §3, §4, §5, §6, §7

[3] = T-30 min-T0 (before administration)
[4] = T-1 h 30-T-1 h (before administration)
[5] = T-1 h-T-30 min (before administration)

Cc1nnc(-c2cc3c(OC[C@@H](O)CN4CCC(c5ccc(Cl)c(Cl)c5)CC4)cccc3o2)o1 [SON-117, (S)-1-(4-(3,4-dichlorophenyl)piperidino)-3-(2-(5-methyl-1,3,4-oxadiazol-2-yl)benzo(b)furan-4-yloxy)-2-propanol hydrochloride]
DOPAC (% of respective basal), individual animal ([1]; T6 h-T6 h 30): 83.76 % of respective basal and 110.08 % of respective basal and 82.62 % of respective basal and 114.80 % of respective basal and 86.77 % of respective basal and 87.31 % of respective basal and 94.36 % of respective basal and 118.84 % of respective basal
DOPAC (% of respective basal), individual animal [1, 3]: 92.03 % of respective basal and 92.17 % of respective basal and 94.06 % of respective basal and 84.92 % of respective basal and 100.16 % of respective basal and 98.43 % of respective basal and 89.23 % of respective basal and 91.73 % of respective basal
DOPAC (% of respective basal), individual animal [1, 4]: 100.35 % of respective basal and 108.62 % of respective basal and 103.45 % of respective basal and 113.40 % of respective basal and 93.25 % of respective basal and 103.88 % of respective basal and 96.73 % of respective basal and 114.26 % of respective basal
DOPAC (% of respective basal), individual animal [1, 5]: 107.67 % of respective basal and 99.20 % of respective basal and 102.47 % of respective basal and 101.65 % of respective basal and 106.59 % of respective basal and 97.67 % of respective basal and 113.99 % of respective basal and 94.02 % of respective basal
DOPAC release, individual animals ([1]; T0-T30 min): 85.79 % of respective basal and 105.77 % of respective basal and 74.34 % of respective basal and 93.11 % of respective basal and 75.08 % of respective basal and 96.85 % of respective basal and 86.07 % of respective basal and 86.69 % of respective basal
DOPAC release, individual animals ([1]; T6 h 30-T7 h): 99.49 % of respective basal and 88.80 % of respective basal and 121.72 % of respective basal
DOPAC release, individual animals [1, 3]: 99.28 % of respective basal and 98.98 % of respective basal and 93.18 % of respective basal and 91.06 % of respective basal and 89.17 % of respective basal and 96.24 % of respective basal and 96.28 % of respective basal and 94.84 % of respective basal
DOPAC release, individual animals [1, 4]: 98.28 % of respective basal and 101.07 % of respective basal and 105.94 % of respective basal and 105.34 % of respective basal and 104.19 % of respective basal and 108.69 % of respective basal and 89.56 % of respective basal and 98.05 % of respective basal
DOPAC release, individual animals [1, 5]: 102.48 % of respective basal and 100.03 % of respective basal and 100.88 % of respective basal and 103.59 % of respective basal and 106.64 % of respective basal and 95.09 % of respective basal and 114.18 % of respective basal and 107.12 % of respective basal
DOPAMINE (% of respective basal), individual animal ([2]; T0-T30 min): 425.25 % of respective basal and 128.6 % of respective basal and 10.85 % of respective basal and 104.55 % of respective basal and 25.10 % of respective basal and 105.91 % of respective basal
DOPAMINE (% of respective basal), individual animal ([2]; T6 h 30-T7 h): 74.20 % of respective basal and 156.19 % of respective basal
DOPAMINE (% of respective basal), individual animal [2, 3]: 141.04 % of respective basal and 122.7 % of respective basal and 58.40 % of respective basal and 93.07 % of respective basal and 137.55 % of respective basal and 113.712 % of respective basal and 70.16 % of respective basal and 104.79 % of respective basal
DOPAMINE (% of respective basal), individual animal [2, 4]: 50.85 % of respective basal and 96.94 % of respective basal and 172.62 % of respective basal and 109.45 % of respective basal and 84.95 % of respective basal and 109.18 % of respective basal and 77.23 % of respective basal and 105.99 % of respective basal
DOPAMINE (% of respective basal), individual animal [2, 5]: 104.72 % of respective basal and 77.56 % of respective basal and 58.40 % of respective basal and 93.71 % of respective basal and 71.40 % of respective basal and 84.33 % of respective basal and 151.7 % of respective basal and 89.85 % of respective basal
Dopamine release, individual animals ([2]; T0-T30 min): 81.30 % of respective basal and 47.89 % of respective basal and 173.04 % of respective basal and 102.11 % of respective basal and 55.97 % of respective basal and 313.80 % of respective basal and 73.51 % of respective basal and 178.31 % of respective basal
Dopamine release, individual animals ([2]; T6 h 30-T7 h): 221.99 % of respective basal and 1040.88 % of respective basal
Dopamine release, individual animals [2, 3]: 58.26 % of respective basal and 98.44 % of respective basal and 100.20 % of respective basal and 137.38 % of respective basal and 158.31 % of respective basal and 39.00 % of respective basal and 109.91 % of respective basal
Dopamine release, individual animals [2, 4]: 116.63 % of respective basal and 114.28 % of respective basal and 117.80 % of respective basal and 100.58 % of respective basal and 88.62 % of respective basal and 71.05 % of respective basal and 133.14 % of respective basal and 92.02 % of respective basal
Dopamine release, individual animals [2, 5]: 128.22 % of respective basal and 86.21 % of respective basal and 90.69 % of respective basal and 98.85 % of respective basal and 82.85 % of respective basal and 74.43 % of respective basal and 130.40 % of respective basal and 97.61 % of respective basal
